At least one structure is not confirmed: it was looked up by name or label, or the drawing left a doubt. Some compounds share one wording; it may come from a single statement.
Tests used:
[1] = test system: Human hair follicles in growth phase (anagen); test: Human hair follicle growth assay; assay type: cell-based; conditions: summary of Table II
Description: Human Hair Follicle Growth Assay
Tissue source—Human skin was obtained from a plastic surgeon as a by-product of face-lift procedures. Immediately after removal, the skin was placed in Williams E medium containing antibiotics and refrigerated. The Williams E medium is a commercially obtained medium which has been formulated with essential nutrients for maintaining viability of tissues or cells such as of hair follicle in an in-vitro environment.
Hair Follicle Isolation and Culture—Human hair follicles in growth phase (anagen) were isolated from face-lift tissue (obtained from plastic surgeons) under dissecting scope using a scalpel and watchmakers forceps. The skin was sliced into thin strips exposing 2-3 rows of follicles that could readily be dissected. Follicles were placed into 0.5 ml William's E medium (Life Technologies, Gaithersburg, Md.) supplemented with 2 mM L-glutamine, 10 μg/ml insulin, 10 ng/ml hydrocortisone, 100 units of penicillin, 0.1 mg/ml streptomycin and 0.25 μg/ml amphotericin B. The follicles were incubated in 24-well plates (1 follicle/well) at 37° C. in an atmosphere of 5% CO2 and 95% air. Thiazolidinediones are dissolved into dimethyl sulfoxide as 100-fold stock solution. The control hair follicles were treated with dimethyl sulfoxide without thiazolidinedione. The follicles were photographed in the 24-well plates under the dissecting scope at a power of 10×. Typically, image recordings were made on day 0 (day follicles were placed in culture), and again on day 7. The length of Hair follicle was assessed using an image analysis software system (Jasc Image Robot). The growth of hair fiber was calculated by the subtracting the follicle length on day 0 from that determined on day 7.

[2] = test system: Golden Syrian hamster flank organs (hair growth); test: Golden Syrian hamster assay (hair mass assay); assay type: in vivo; conditions: summary of Table I
Description: Golden Syrian Hamster Assay
Male intact Golden Syrian hamsters are considered acceptable models for human beard hair growth in that they display oval shaped flank organs, one on each side, each about 8 mm. in major diameter. These organs produce fine light colored hair typical of the animal pelage found on the body. In response to androgens the flank organs produce dark coarse hair similar to male human beard hair. To evaluate the effectiveness of a composition in reducing hair growth, the flank organs of each of a group of hamsters are depilated by applying a thioglycolate based chemical depilatory (Surgex) and/or shaved. To one organ of each animal 10 μl. of vehicle alone once a day is applied, while to the other organ of each animal an equal amount of vehicle containing the ligand under evaluation is applied. After three weeks of topical applications (one application per day for five days a week), the flank organs are shaved and the amount of recovered hair (hair mass) from each is weighed. Percent-reduction of hair growth is calculated by subtracting the hair mass (mg) value of the test compound treated side from the hair mass value of the vehicle treated side; the delta value obtained is then divided by the hair mass value of the vehicle treated side, and the resultant number is multiplied by 100.
The above-described assay will be referred to herein as the “Golden Syrian hamster” assay or “hair mass” assay. Preferred compositions provide a reduction in hair growth of at least about 15% and more preferably at least about 35%, when tested in the Golden Syrian hamster assay.

CCc1ccc(CCOc2ccc(CC3SC(=O)NC3=O)cc2)nc1 (stereo not shown) [Pioglitazone, pioglitazone]
Effect on human hair growth (in words) [1]: can reduce human hair growth | Effect on hair growth in vivo (in words) [2]: can reduce hair growth in vivo

CN(CCOc1ccc(CC2SC(=O)NC2=O)cc1)c1ccccn1 (stereo not shown) [Rosiglitazone, rosiglitazone]
Effect on human hair growth (in words) [1]: can reduce human hair growth | Effect on hair growth in vivo (in words) [2]: can reduce hair growth in vivo

CC1(COc2ccc(CC3SC(=O)NC3=O)cc2)CCCCC1 (stereo not shown) [Ciglitazone, ciglitazone]
Effect on human hair growth (in words) [1]: can reduce human hair growth | Effect on hair growth in vivo (in words) [2]: can reduce hair growth in vivo

Cc1c(C)c2c(c(C)c1O)CCC(C)(COc1ccc(CC3SC(=O)NC3=O)cc1)O2 (stereo not shown) [Troglitazone, troglitazone]
Effect on human hair growth (in words) [1]: can reduce human hair growth
